Source: PubChem BioAssay AID2549 (National Center for Advancing Translational Sciences (NCATS), 2010)
“And” between values parts separate entries of the source, which are not always exact repeats. Identical values can stand only once. The whole screen tested about 240,000 compounds, of which about 1,300 (0.54%) were called active. The shares of active, inactive and inconclusive entries below differ from those in the screen. The call rests on the fitted dose curve; in most records, active means well fitted inhibition curve with a large enough effect; inconclusive means small, poorly fitted or top-dose-only effect; inactive means flat fitted curve, though single readings scatter. A potency beside an inconclusive call is a rough fit, not a confirmed value. Some compounds were tested as several samples or in several runs, with calls that do not always agree.
Further: nearly all actives have a fitted effect of over 30% in size.
Potency means the concentration at half of the fitted maximal effect.

Amino acid sequences for entries named in this document (tags omitted). A change or cut given only in a name is not applied to a line headed by its entry.
UniProt P46063: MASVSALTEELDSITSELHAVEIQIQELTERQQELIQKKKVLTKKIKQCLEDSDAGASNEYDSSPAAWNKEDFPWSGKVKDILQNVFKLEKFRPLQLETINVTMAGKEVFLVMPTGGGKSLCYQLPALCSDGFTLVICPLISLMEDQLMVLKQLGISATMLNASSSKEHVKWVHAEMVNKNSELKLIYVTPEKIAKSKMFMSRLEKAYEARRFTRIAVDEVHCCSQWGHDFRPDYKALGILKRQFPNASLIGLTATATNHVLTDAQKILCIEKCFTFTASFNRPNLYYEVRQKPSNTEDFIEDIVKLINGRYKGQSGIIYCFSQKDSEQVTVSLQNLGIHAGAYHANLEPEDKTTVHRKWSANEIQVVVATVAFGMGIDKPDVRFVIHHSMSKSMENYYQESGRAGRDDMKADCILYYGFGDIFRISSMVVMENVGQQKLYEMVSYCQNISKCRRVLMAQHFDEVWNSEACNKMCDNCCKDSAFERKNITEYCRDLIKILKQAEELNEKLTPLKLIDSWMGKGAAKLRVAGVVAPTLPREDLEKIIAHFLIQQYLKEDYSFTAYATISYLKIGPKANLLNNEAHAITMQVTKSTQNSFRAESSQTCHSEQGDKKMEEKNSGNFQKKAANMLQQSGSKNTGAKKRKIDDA

Each molecule was assayed against ATP-dependent DNA helicase Q1 (Homo sapiens) (UniProt P46063) (assay: qHTS Assay for Inhibitors of RecQ-Like Dna Helicase 1 (RECQ1)). Details: RECQ1 DNA unwinding, red fluorescence kinetic read; series mostly up to 57.3 µM.
Method in brief: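 50 nM RECQ1T1 preincubated 15 min with compound in Tris pH 8.0 buffer with MgCl2, DTT, Tween-20 and 2.5 ug/ml poly(dI-dC); started with 200 nM TAMRA/BHQ-2 forked duplex and 2 mM ATP. Unwinding read as fluorescence (525/598 nm), two reads 2 h apart.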
In the case of `Cn1c(N)c(C(=O)COC(=O)c2cc(-c3ccccc3)nc3ccccc23)c(=O)n(Cc2ccccc2)c1=O`, the Potency is reported as “inactive”.
For `Cc1nc(N=Nc2cc(S(=O)(=O)O)c3cc([N+](=O)[O-])cc(S(=O)(=O)O)c3c2)c(COP(=O)(O)O)c(C=O)c1O`, the Potency was inconclusive: 39.8 µM [inhibitor, single point] and inconclusive: 35.5 µM [inhibitor, single point].
`O=S(=O)(NCC(O)COCc1ccco1)c1cccs1` (stereo not drawn) was tested, and the Potency was inconclusive: 39.8 µM [inhibitor, single point].
With `c1ccc(CCNc2ncnc3c2nnn3Cc2ccccc2)cc1` the Potency was “inactive”.
For `CCN(CC)C(=O)c1c[nH]c2ccc(S(=O)(=O)Nc3cc(C)cc(C)c3)cc2c1=O`, the Potency was “inactive”.
`CCCCOc1ccc(NC(=O)c2cc(F)c(F)cc2Cl)cc1` was tested, and the Potency was inconclusive: 5.62 µM [inhibitor, full curve, poor fit].
With `N#C/C(=C\c1ccccc1OCc1ccc(C(=O)O)cc1)c1ccccc1` the Potency was “inactive”.
With `CC(=O)N=c1sc2ccccc2n1C` the Potency was “inactive”.
For `CCOC(=O)c1cc(NC(=O)c2ccc(OC)cc2)c(=O)oc1-c1ccccc1`, the Potency was inconclusive: 14.1 µM [inhibitor, partial curve].
For `COc1c2c(nc3ccccc13)OC(C(C)(O)COC(C)=O)C2` (stereo not drawn), the Potency was “inactive”.
With `COc1cc(O)c(C(=O)c2ccccc2)cc1O` the Potency was inconclusive: 22.4 µM [inhibitor, single point].
With `O=c1ccc(NS(=O)(=O)c2ccccc2Cl)cn1Cc1ccc(Cl)c(Cl)c1` the Potency was “inactive”.
In the case of `CC/C=C\C/C=C\C/C=C\CCCCCCCC(=O)O`, the Potency is reported as active: 1.78 µM.
In the case of `CC(=C/C(=O)O)/C=C/c1ccc(Cl)o1`, the Potency is reported as “inactive”.
`O=C(CN1C(=O)c2ccccc2C1=O)OC(C(=O)c1ccc(Cl)cc1)c1ccccc1` (stereo not drawn) was tested, and the Potency was inconclusive: 31.6 µM [inhibitor, partial curve].
`C#CCOCCOCCOCCNc1nc(N2CCN(C(=O)[C@H](Cc3ccc(O)cc3)n3cc([C@@H](N)C(C)CC)nn3)CC2)nc(N2CCN(C(=O)[C@H](Cc3cc4ccccc4[nH]3)n3cc([C@@H](N)Cc4ccc(O)cc4)nn3)CC2)n1` (stereo partly drawn) was tested, and the Potency was inconclusive: 31.6 µM [inhibitor, single point].
For `CCCCCc1cc(=O)oc2c(C(CCN3CCCCC3)c3ccc(OC)cc3)c(OC)cc(OC)c12` (stereo not drawn), the Potency was “inactive”.
For `C=CCOC(=O)c1cc(-c2ccc(/C=C3\C(=O)NC(=O)C(C#N)=C3C)o2)ccc1Cl`, the Potency was inconclusive: 39.8 µM [inhibitor, single point].
For `COc1ccccc1-c1ccc(/C=C2/C=C(C)OC2=O)o1`, the Potency was inconclusive: 25.1 µM [inhibitor, single point].
`COc1cc(/C=N/N=C2/C(=O)Nc3ccccc32)ccc1O` was tested, and the Potency was “inactive”.
With `CCOC(=O)c1cnc(-n2nc(C)cc2C)nc1Nc1ccc(C)cc1` the Potency was “inactive”.
For `CC1=Nc2ccccc2/C1=C/c1nc(-c2ccc(C)s2)oc1O`, the Potency was inconclusive: 39.8 µM [inhibitor, single point].
With `O=C1NCCNC(=O)c2ccccc2OCCOc2ccccc21` the Potency was “inactive”.
`O=C(CCc1nc2ccccc2s1)NC1CCOC1=O` (stereo not drawn) was tested, and the Potency was inconclusive: 35.5 µM [inhibitor, single point].
With `CCOC(=O)c1ccc2c(c1)N(CC#N)C(=O)C(C)(C)O2` the Potency was inconclusive: 0.398 µM [inhibitor, partial curve, poor fit].
`C/C=C\C=C/C(=O)Nc1cccc(C2=NOC3(C2)C[C@H](C(N)=O)N(C(=O)c2ccc(OC)cc2)C3)c1` (stereo partly drawn) was tested, and the Potency was inconclusive: 39.8 µM [inhibitor, single point].
With `CCCc1nc2oc(C(=O)OCC)c(N)c2c2c1COC(C)(C)C2` the Potency was inconclusive: 39.8 µM [inhibitor, single point].
In the case of `Oc1cc(O)c2c(c1)OC(c1ccc(O)c(O)c1)C(O)C2` (stereo not drawn), the Potency is reported as active: 14.1 µM.
With `CCOc1cc(CNc2ccc(N3CCOCC3)cc2)cc(Br)c1OCC` the Potency was inconclusive: 0.891 µM [inhibitor, single point].
For `Oc1ccc(-c2n[nH]c(=S)n2-c2ccc3c(c2)OCCO3)cc1`, the Potency was “inactive”.
With `O=C(CSCC(=O)NCc1ccco1)NCc1ccco1` the Potency was “inactive”.
`CCc1ccc(S(=O)(=O)N(C(=O)c2ccncc2)c2ccc(OC(=O)c3ccncc3)cc2)cc1` was tested, and the Potency was inconclusive: 39.8 µM [inhibitor, single point].
`CCOC(=O)c1c(-c2ccccc2)csc1NC(=O)CSc1nc(C)cc(C)n1` was tested, and the Potency was inconclusive: 39.8 µM [inhibitor, single point].
`CC(C)(C)[C@H]1C=C(C(=O)Nc2ccccc2)O[C@@H](OCc2ccc(CO)cc2)C1` was tested, and the Potency was active: 28.2 µM.
With `COc1ccc(-c2cc3nc(C)c(CCC(=O)N4CCN(c5ccccn5)CC4)c(C)n3n2)c(OC)c1` the Potency was “inactive”.
`O=C(Nc1ccc(C(=O)N2CCCC2)cc1)c1ccc2c(c1)OCO2` was tested, and the Potency was inconclusive: 0.158 µM [inhibitor, full curve, poor fit].
For `CCC(=O)OCC(=O)c1cc(C)n(-c2ccc(Br)cc2)c1C`, the Potency was inconclusive: 0.708 µM [inhibitor, full curve].
`CC1Cc2ccccc2N1C(=O)CSc1nnc(NC(=O)Cc2cccs2)s1` (stereo not drawn) was tested, and the Potency was inconclusive: 0.562 µM [inhibitor, full curve, poor fit].
In the case of `C=CCn1c(COc2ccc(F)cc2)nnc1SCC(=O)NC(=O)NCc1ccco1`, the Potency is reported as inconclusive: 22.4 µM [inhibitor, partial curve, poor fit].
In the case of `CCc1ccc(N2CSC3=C(C#N)C(c4cccs4)CC(=O)N3C2)cc1` (stereo not drawn), the Potency is reported as inconclusive: 39.8 µM [inhibitor, single point].
`COc1ccc(-n2c(N)c(C(=O)NCC3CCCO3)c3nc4ccccc4nc32)c(OC)c1` (stereo not drawn) was tested, and the Potency was inconclusive: 39.8 µM [inhibitor, single point].
In the case of `CS(=O)(=O)N1CCN(c2ccc(C(=O)NC3C4CC5CC(C4)CC3C5)cc2[N+](=O)[O-])CC1` (stereo not drawn), the Potency is reported as inconclusive: 35.5 µM [inhibitor, single point].
For `Cc1ccc(S(=O)(=O)/N=C2/C=C(Sc3ncn[nH]3)C(=O)c3ccccc32)c(C)c1`, the Potency was “inactive”.
